These results are taken from the supplement of paper PMC10338343.

± gives the standard deviation. The entries are a selection whose mix differs from that of the whole data set. The uncertainty is large for many entries. The list shows a part of the results.

The test system of one assay is MIWI (PIWIL1) piRISC loaded with L1MC piRNA (30 nt). Description: pre-steady-state target cleavage rate (min^-1); higher = faster piRNA-guided slicing of the target. The settings on record: guide: L1MC piRNA 5'p-UAACUAAAUACUAUGCAAGCUGUAGGUCCU; auxiliary factor: none (no GTSF1). A digest of the protocol:
(§1)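 Active affinity-purified piRISC (1 nM) loaded with one synthetic guide was mixed with a transcribed, DNA-blocked target RNA library (0.1 nM), with or without 500 nM GTSF1 partner protein, in HEPES–potassium acetate buffer at 33 °C for 0–8 or 0–960 min. Uncleaved targets were sequenced, normalised to depth and to weakly complementary targets, and pooled across three trials, with k3 capped at 0.0001 min^-1. The pre-steady-state cleavage rate was determined with a burst-and-steady-state fit.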
As to UCCUGGAUCACGUUGCAUAGUAUUUAGAAA, the “pre-steady-state target cleavage rate” value is 0.00201 ± 0.0029.

For UCCUGGAUGUCCUUCGUUAGUAUUUAGUUA, the “pre-steady-state target cleavage rate” value was 0.000729 ± 0.011.

Take UCCUGGAUGAGCUUGCAUAGGUAUUUAGUUA: the “pre-steady-state target cleavage rate” value was 0.00165 ± 0.0047.

The next assay relates to EfPiwi piRISC loaded with L1MC piRNA (26 nt). Description: pre-steady-state target cleavage rate (min^-1); guide: L1MC piRNA 5'p-UAACUAAAUACUAUGCAAGCUGUAGG; MIWI and MILI are mouse PIWI proteins and EfPiwi is from a freshwater sponge; tags in brackets are library labels; higher = faster piRNA-guided slicing of the target. The settings on record: auxiliary factor: 500 nM Ephydatia muelleri Gtsf1. The essentials:
as §1
For UCCUGCUACACGAUGCAUAGUAUUUAGUAA, the “pre-steady-state target cleavage rate” value is 0.00352 ± 0.0024.

Turning to UCCUGGUUACAGCUUGCAUAGUAUUUAGUUA, the “pre-steady-state target cleavage rate” value worked out at 0.0881 ± 0.021.

In the case of UCCUGGAUGUCGUUGCAUAGUAUGUUAGUUA, the “pre-steady-state target cleavage rate” value worked out at 0.00121 ± 0.0082.

As to UCCUGGUACAGCUUCGUUAGUAUUUAGAAA, the “pre-steady-state target cleavage rate” value worked out at 0.000281 ± 0.0094.

Take UCCUGGAUGUGGAAGCAUAGUAUUUAGAAA: the “pre-steady-state target cleavage rate” value turned out to be 0.00125 ± 0.0076.

On to UCCUGGUCACAGCUUGCAUAGUAUUUAGUUA, for which the “pre-steady-state target cleavage rate” value came out at 0.00857 ± 0.0072.

As to UCCUGGAUGUCGAUGCAUAGUUUUUAGUUA, the “pre-steady-state target cleavage rate” value came to 0.00191 ± 0.0028.

Regarding UCCUGGAUGUCGAAGGCAUAGUAUUUAGUUA, the “pre-steady-state target cleavage rate” value worked out at 0.00272 ± 0.0038.

Turning to UCCUCCUACAGCUUGCAUAGAAAUUAGUUA, the “pre-steady-state target cleavage rate” value came to 0.00254 ± 0.0029.

As to UCCUGCUACAGCUUGCCUAGUAUUUAGUUA, the “pre-steady-state target cleavage rate” value worked out at 0.00702 ± 0.0018.

Take UCCUGGAUGUGCUUGCAUAGUAUUUGUUA: the “pre-steady-state target cleavage rate” value was found to be 0.0013 ± 0.0035.

With UCCUCCUACAGCUUCCAUAGUAUUUAGAAA, the “pre-steady-state target cleavage rate” value came out at 0.00369 ± 0.0018.

For UCCUGGAUGUCGAAGCAAAGAAUUUAGUUA, the “pre-steady-state target cleavage rate” value turned out to be 0.000167 ± 0.021.

UCCUGGAUGUCGAACCUUAGUAUUUAGAUA: the “pre-steady-state target cleavage rate” value amounted to 0.000388 ± 0.013.

UCCUGGAUGUGGUUGCAUAGUAUUUAGAUA: the “pre-steady-state target cleavage rate” value stood at 0.00221 ± 0.0048.

UCCUGGAACAGCUUCCAUAGUAUUUACAAA: the “pre-steady-state target cleavage rate” value came out at 0.00119 ± 0.0032.

With UCCUGGAUGUCGAUGCAUAGUGUUUAGUUA, the “pre-steady-state target cleavage rate” value turned out to be 0.00218 ± 0.0049.

Take UCCUGGUACAGCUUACAUAGUAUUUAGUUA: the “pre-steady-state target cleavage rate” value was 0.0283 ± 0.0076.

Regarding UCCUGGAUGUGCUUGCAUAGUUAAUAGUUA, the “pre-steady-state target cleavage rate” value worked out at 0.00166 ± 0.0051.

On to UCCUGGAUGAGCUUCCAUAGUAUUAAGUUA, for which the “pre-steady-state target cleavage rate” value is 0.000443 ± 0.0093.

UCCUGGAUGUCCUAGCAUAGUUUUUAGUUA: the “pre-steady-state target cleavage rate” value stood at 0.00038 ± 0.0057.

With UCCUGCUACUCGUUGCAUAGUAUUUAGAAA, the “pre-steady-state target cleavage rate” value is 0.00275 ± 0.0031.

On to UCCUGGAUGUGCUUCGUUAGUAUUUAGUUA, for which the “pre-steady-state target cleavage rate” value is 0.000306 ± 0.0093.

As for UCCUGGAUGUCGAUGCAUAGUAUUAUGUUA, the “pre-steady-state target cleavage rate” value was determined as 0.000877 ± 0.0097.

Regarding UCCUGGAACAGCUUGCAUAGUAUUUGGUUA, the “pre-steady-state target cleavage rate” value amounted to 0.00496 ± 0.002.

Turning to UCCUGGAUGUCGAUGCAUAGUAUUUAGGUUA, the “pre-steady-state target cleavage rate” value was found to be 0.000852 ± 0.0083.

On to UCCUGGAUCAGCUUCCAAAGUAUUUAGUUA, for which the “pre-steady-state target cleavage rate” value is 0.00404 ± 0.0027.

Regarding UCCUCCUACAGCUUGCAUAGAUUUUAGUAA, the “pre-steady-state target cleavage rate” value was determined as 0.00392 ± 0.0025.

Consider UCCUGCAACAGCUUGCAUUGUAUUUAGUUA, for which the “pre-steady-state target cleavage rate” value worked out at 0.0331 ± 0.0081.

With “UCCUGGAUGUCGAACCAUAGUAUUUAGAAA [g4:g15:cont:t1A]”, the “pre-steady-state target cleavage rate” value was found to be 0.000358 ± 0.013.

For the sequence UCCUGGAUGAGCUUGCAUAGAUAUUUAGUUA, the “pre-steady-state target cleavage rate” value turned out to be 0.00152 ± 0.0053.

As for UCCUGGAUGUCCUUGCAUAGUAGUUUAGUUA, the “pre-steady-state target cleavage rate” value was found to be 0.00253 ± 0.0037.

UCCUGGAUGAGCUACCAUAGUAUUUAGUAA: the “pre-steady-state target cleavage rate” value amounted to 0.000569 ± 0.0078.

As to UCCUGGAUGUGGUUGCAUUGUAUUUAGUUA, the “pre-steady-state target cleavage rate” value stood at 0.00175 ± 0.005.

Regarding UCCUGGAUGUCGAAGUAUAGUAUUUAGUUA, the “pre-steady-state target cleavage rate” value worked out at 0.00156 ± 0.0053.

Turning to UCCUGGAUGUCGAUGCAUAGUAUUUAGUAUA, the “pre-steady-state target cleavage rate” value amounted to 0.00387 ± 0.0048.

UCCUGGAUGUCGUUGGCAUAGUAUUUAGUUA: the “pre-steady-state target cleavage rate” value was found to be 0.0014 ± 0.0063.

Consider UCCUGGAUCACGUUGCAUAGUAUUUAGAAA, for which the “pre-steady-state target cleavage rate” value turned out to be 0.00652 ± 0.0044.

Take UCCUGGAUGUCCUUCGUUAGUAUUUAGUUA: the “pre-steady-state target cleavage rate” value came out at 0.000405 ± 0.0081.

For the sequence UCCUGGAUGAGCUUGCAUAGGUAUUUAGUUA, the “pre-steady-state target cleavage rate” value worked out at 0.00116 ± 0.0057.
